PubChem BioAssay AID1159578 | Peter MacCallum Cancer Centre, 2015
In all, the deposit lists about 18,000 reagents; shown is a part drawn at random. About 1,030 of them (5.7%) were called active. 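Inactive calls also include pools with fewer than 3300 nuclei, whose migration was not assessed.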 Raw values are not corrected between plates. Entries without a mark were called inactive. The numbers tell different reagents against one gene apart.

- Screen: 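siRNA pools altering how lymphatic endothelial cells close a scratch wound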 (primary screen)
- System: human lymphatic endothelial cells
- Reagents: siRNA pool against human genes, 40 nM
- Duration: 48 h after transfection
- Measured: 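High-content imaging of dye-stained cells in a scratch assay measures filled wound area and nuclei per well; duplicate means given as ratio to mock and robust z-score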
- Reading the numbers: migration robust z-score: higher = faster migration into the scratch; migration relative to mock: higher = more scratch area covered than mock; nuclei per well: higher = more cells in the well
- Call rule: 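Migration changed when robust z exceeds 2 or falls below -2 and mean nuclei number is at least 3300; otherwise not called changed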
- Calls: active = migration changed; inactive = no migration change, or too few cells

gene symbol,reagent no.,migration robust z-score,migration class with cell-count check,migration relative to mock,"nuclei per well, duplicate mean"
SPATA31A1,1,-0.05,migration z between -2 and 2; enough cells,0.88,5698
SPATA31A1,2,2.06 (active),migration z above 2; enough cells,1.42,6730
TBX6,1,-1.06,migration z between -2 and 2; enough cells,0.6,4482
VPS37B,1,-0.06,migration z between -2 and 2; enough cells,0.87,5198
CCDC24,1,-0.48,migration z between -2 and 2; enough cells,0.76,6586
SZRD1,1,-0.88,migration z between -2 and 2; enough cells,0.66,5867
SUMO2,1,2.55 (active),migration z above 2; enough cells,1.55,6182
SAMD9,1,0.64,migration z between -2 and 2; enough cells,1.05,4721
SLC6A17,1,0.39,migration z between -2 and 2; enough cells,0.98,6035
SCNN1G,1,-0.26,migration z between -2 and 2; enough cells,0.76,7412
ARSA,1,-1.25,migration z between -2 and 2; enough cells,0.56,4464
GLUD1,1,2.02 (active),migration z above 2; enough cells,1.19,6494
WNT5B,1,-0.55,migration z between -2 and 2; enough cells,0.74,6067
PFN1,1,1.51,migration z between -2 and 2; enough cells,1.27,6478
TNRC6B,1,0.38,migration z between -2 and 2; enough cells,0.98,5516
TMEM117,1,1.59,migration z between -2 and 2; enough cells,1.29,5660
ALG10,1,0.31,migration z between -2 and 2; enough cells,0.86,7025
BST2,1,1.12,migration z between -2 and 2; enough cells,1.17,6056
TMX3,1,1.27,migration z between -2 and 2; enough cells,1.05,7554
SMG6,1,0,migration z between -2 and 2; enough cells,0.88,5145
WDR25,1,-0.7,migration z between -2 and 2; enough cells,0.7,5738
TTC9C,1,1.35,migration z between -2 and 2; enough cells,1.23,6104
PURG,1,-1.11,migration z between -2 and 2; enough cells,0.6,5656
NEIL3,1,0.64,migration z between -2 and 2; enough cells,1.05,5905
EBF1,1,1.17,migration z between -2 and 2; enough cells,1.19,6341
VAMP5,1,0.97,migration z between -2 and 2; enough cells,1.14,5719
HSPA12B,1,0.48,migration z between -2 and 2; enough cells,1.01,6262
CDS1,1,-1.56,migration z between -2 and 2; enough cells,0.5,5934
UBE2M,1,-0.16,migration z between -2 and 2; enough cells,0.77,5330
RNF8,1,-0.34,migration z between -2 and 2; enough cells,0.74,4672
SLC4A10,1,0.75,migration z between -2 and 2; enough cells,0.95,5868
GOLT1B,1,0.43,migration z between -2 and 2; enough cells,1,6717
ANKRD34B,1,-2.26 (active),migration z below -2; enough cells,0.31,3588
DHDH,1,-0.26,migration z between -2 and 2; enough cells,0.76,4702
NOX1,1,0.94,migration z between -2 and 2; enough cells,0.98,5936
DPP7,1,-0.54,migration z between -2 and 2; enough cells,0.7,7017
KIAA1191,1,1.04,migration z between -2 and 2; enough cells,1.16,5388
HORMAD1,1,1.69,migration z between -2 and 2; enough cells,1.32,6256
ZFHX3,1,0.13,migration z between -2 and 2; enough cells,0.83,6096
SLC35G3,1,-3.13,under 3300 nuclei; migration not judged,0.09,3110
CKMT2,1,-2.02 (active),migration z below -2; enough cells,0.42,4722
OSGIN1,1,-0.42,migration z between -2 and 2; enough cells,0.77,6221
VGLL1,1,0.14,migration z between -2 and 2; enough cells,0.92,4694
BACE1,1,-0.62,migration z between -2 and 2; enough cells,0.68,6064
ATP11C,1,-0.7,migration z between -2 and 2; enough cells,0.7,6224
VPS54,1,-0.68,migration z between -2 and 2; enough cells,0.71,5496
MTRF1,1,0.54,migration z between -2 and 2; enough cells,0.91,3933
SLC26A10P,1,-0.26,migration z between -2 and 2; enough cells,0.76,5718
MIER3,1,-0.2,migration z between -2 and 2; enough cells,0.84,6038
MAVS,1,-0.04,migration z between -2 and 2; enough cells,0.88,4794
SLC22A3,1,0.5,migration z between -2 and 2; enough cells,0.9,3784
DRC4,1,0.2,migration z between -2 and 2; enough cells,0.94,6386
PIK3CD,1,-1.09,migration z between -2 and 2; enough cells,0.6,6306
YPEL4,1,-0.6,migration z between -2 and 2; enough cells,0.73,5491
GGTLC2,1,-0.91,migration z between -2 and 2; enough cells,0.63,5400
ZNF551,1,-0.8,migration z between -2 and 2; enough cells,0.68,4584
PCNX1,1,-2.03 (active),migration z below -2; enough cells,0.36,4412
C1QTNF3,1,1.8,migration z between -2 and 2; enough cells,1.35,6152
POU3F1,1,-1.28,migration z between -2 and 2; enough cells,0.55,6095
DHRS4,1,0.11,migration z between -2 and 2; enough cells,0.82,4798
METTL25B,1,1.39,migration z between -2 and 2; enough cells,1.25,6122
ANPEP,1,-0.39,migration z between -2 and 2; enough cells,0.73,5672
IFI27L2,1,-1.69,migration z between -2 and 2; enough cells,0.45,3818
GSX2,1,0.34,migration z between -2 and 2; enough cells,0.98,6669
ALDH3B1,1,-0.93,migration z between -2 and 2; enough cells,0.62,3821
HYPK,1,1.12,migration z between -2 and 2; enough cells,1.17,6102
ZBTB26,1,-0.05,migration z between -2 and 2; enough cells,0.87,5786
OR52B6,1,-0.69,migration z between -2 and 2; enough cells,0.71,5392
CLCN6,1,-0.16,migration z between -2 and 2; enough cells,0.78,5066
MPHOSPH10,1,-0.02,migration z between -2 and 2; enough cells,0.88,5606
CNTN6,1,1.25,migration z between -2 and 2; enough cells,1.04,5167
PTH,1,1.25,migration z between -2 and 2; enough cells,1.21,5896
MEX3B,1,1.87,migration z between -2 and 2; enough cells,1.17,6220

Reformatted: results already given
DHRS4
- migration robust z-score: 0.11
- migration class with cell-count check: migration z between -2 and 2; enough cells
- migration relative to mock: 0.82
- nuclei per well, duplicate mean: 4798

METTL25B
- migration robust z-score: 1.39
- migration class with cell-count check: migration z between -2 and 2; enough cells
- migration relative to mock: 1.25
- nuclei per well, duplicate mean: 6122

ANPEP
- migration robust z-score: -0.39
- migration class with cell-count check: migration z between -2 and 2; enough cells
- migration relative to mock: 0.73
- nuclei per well, duplicate mean: 5672

IFI27L2
- migration robust z-score: -1.69
- migration class with cell-count check: migration z between -2 and 2; enough cells
- migration relative to mock: 0.45
- nuclei per well, duplicate mean: 3818

GSX2
- migration robust z-score: 0.34
- migration class with cell-count check: migration z between -2 and 2; enough cells
- migration relative to mock: 0.98
- nuclei per well, duplicate mean: 6669

ALDH3B1
- migration robust z-score: -0.93
- migration class with cell-count check: migration z between -2 and 2; enough cells
- migration relative to mock: 0.62
- nuclei per well, duplicate mean: 3821

HYPK
- migration robust z-score: 1.12
- migration class with cell-count check: migration z between -2 and 2; enough cells
- migration relative to mock: 1.17
- nuclei per well, duplicate mean: 6102

ZBTB26
- migration robust z-score: -0.05
- migration class with cell-count check: migration z between -2 and 2; enough cells
- migration relative to mock: 0.87
- nuclei per well, duplicate mean: 5786

OR52B6
- migration robust z-score: -0.69
- migration class with cell-count check: migration z between -2 and 2; enough cells
- migration relative to mock: 0.71
- nuclei per well, duplicate mean: 5392

CLCN6
- migration robust z-score: -0.16
- migration class with cell-count check: migration z between -2 and 2; enough cells
- migration relative to mock: 0.78
- nuclei per well, duplicate mean: 5066
